Data on 4 molecules can be found in PMC7431544.

Sequences of proteins named here, by UniProt entry; tags and fusion partners are left off.
UniProt Q9NQB0: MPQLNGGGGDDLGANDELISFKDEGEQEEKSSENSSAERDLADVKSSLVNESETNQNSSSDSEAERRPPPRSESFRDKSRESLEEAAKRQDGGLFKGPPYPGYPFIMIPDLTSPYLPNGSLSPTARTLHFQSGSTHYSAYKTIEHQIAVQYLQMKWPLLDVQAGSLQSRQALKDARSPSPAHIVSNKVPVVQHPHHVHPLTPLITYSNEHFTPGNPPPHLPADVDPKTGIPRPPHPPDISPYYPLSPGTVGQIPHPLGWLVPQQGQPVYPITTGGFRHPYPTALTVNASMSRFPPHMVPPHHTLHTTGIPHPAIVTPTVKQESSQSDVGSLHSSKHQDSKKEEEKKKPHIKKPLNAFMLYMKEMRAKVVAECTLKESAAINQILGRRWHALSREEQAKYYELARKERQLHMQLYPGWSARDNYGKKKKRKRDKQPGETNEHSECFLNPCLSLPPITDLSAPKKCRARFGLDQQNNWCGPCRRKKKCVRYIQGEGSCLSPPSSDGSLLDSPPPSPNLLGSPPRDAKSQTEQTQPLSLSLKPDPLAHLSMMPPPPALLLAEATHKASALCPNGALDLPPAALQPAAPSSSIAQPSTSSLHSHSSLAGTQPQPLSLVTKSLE
UniProt P35222: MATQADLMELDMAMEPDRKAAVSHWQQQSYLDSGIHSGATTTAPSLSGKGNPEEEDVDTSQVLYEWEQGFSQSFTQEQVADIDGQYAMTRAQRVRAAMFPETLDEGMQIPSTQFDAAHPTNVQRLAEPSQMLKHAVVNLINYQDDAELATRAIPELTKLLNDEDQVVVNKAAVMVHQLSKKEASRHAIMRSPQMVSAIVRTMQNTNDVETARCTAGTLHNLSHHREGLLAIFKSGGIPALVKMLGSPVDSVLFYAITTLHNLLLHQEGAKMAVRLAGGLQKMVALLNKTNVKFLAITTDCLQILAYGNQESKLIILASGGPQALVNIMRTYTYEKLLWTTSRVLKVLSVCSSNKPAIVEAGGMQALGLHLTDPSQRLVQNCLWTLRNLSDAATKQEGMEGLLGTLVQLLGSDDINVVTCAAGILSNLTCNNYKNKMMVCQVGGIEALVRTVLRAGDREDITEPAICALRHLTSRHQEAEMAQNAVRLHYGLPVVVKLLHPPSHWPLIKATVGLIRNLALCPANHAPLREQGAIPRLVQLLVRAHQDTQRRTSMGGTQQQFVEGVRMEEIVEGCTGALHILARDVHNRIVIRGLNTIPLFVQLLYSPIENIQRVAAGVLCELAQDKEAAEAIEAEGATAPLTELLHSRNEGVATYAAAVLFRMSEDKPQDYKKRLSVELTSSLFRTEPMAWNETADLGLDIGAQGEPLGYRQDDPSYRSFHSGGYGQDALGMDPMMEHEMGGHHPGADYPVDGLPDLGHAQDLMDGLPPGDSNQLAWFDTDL
UniProt P19793: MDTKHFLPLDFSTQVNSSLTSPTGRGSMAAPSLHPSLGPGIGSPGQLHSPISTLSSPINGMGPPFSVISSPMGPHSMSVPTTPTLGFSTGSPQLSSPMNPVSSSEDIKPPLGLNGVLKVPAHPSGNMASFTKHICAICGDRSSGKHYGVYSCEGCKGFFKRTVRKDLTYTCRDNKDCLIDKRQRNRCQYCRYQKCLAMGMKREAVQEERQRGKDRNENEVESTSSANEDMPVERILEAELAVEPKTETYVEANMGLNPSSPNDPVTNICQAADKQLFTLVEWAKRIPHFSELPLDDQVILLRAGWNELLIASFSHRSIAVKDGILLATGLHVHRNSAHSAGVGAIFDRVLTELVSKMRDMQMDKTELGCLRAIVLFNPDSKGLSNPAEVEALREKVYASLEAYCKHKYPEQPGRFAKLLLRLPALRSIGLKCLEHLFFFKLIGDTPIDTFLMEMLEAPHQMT

No constants are given. Whether binding was seen depends on the method and setting. In cells and extracts the contact can be indirect. Some results given as binding are weak or reduced against the parent protein; the word gives no strength. For part of these data: Sequences can lack the tags named with a protein.

The target of experiment [1] is T1, farnesoid X receptor (FXR) expressed from the pUbi-EGFP-FXR lentiviral vector (UniProt Q96RI1).
T1 sequence: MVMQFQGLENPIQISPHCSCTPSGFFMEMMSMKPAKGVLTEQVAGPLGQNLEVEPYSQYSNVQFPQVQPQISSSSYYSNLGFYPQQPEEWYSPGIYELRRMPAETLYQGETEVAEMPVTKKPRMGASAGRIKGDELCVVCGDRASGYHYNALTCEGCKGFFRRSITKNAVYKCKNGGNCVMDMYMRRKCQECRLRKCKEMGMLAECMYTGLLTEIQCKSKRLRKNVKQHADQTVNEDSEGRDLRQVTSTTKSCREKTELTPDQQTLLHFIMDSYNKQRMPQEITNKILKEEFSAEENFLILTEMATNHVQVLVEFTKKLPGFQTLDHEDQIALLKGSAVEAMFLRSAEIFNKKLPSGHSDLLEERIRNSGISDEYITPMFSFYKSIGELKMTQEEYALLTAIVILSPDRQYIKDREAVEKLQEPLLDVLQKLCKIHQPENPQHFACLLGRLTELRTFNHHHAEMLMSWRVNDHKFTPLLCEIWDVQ
The experiment is described as follows: co-IP; nuclear fractions of SW480-FXR and HCT116-FXR cells infected with β-catenin-shRNA, β-catenin-overexpressing or control lentivirus for 48 h, IP with anti-FXR.

Experiment [2] deals with T2, endogenous farnesoid X receptor (FXR) (human (endogenous in HT-29 and Caco-2)) (UniProt Q96RI1).
T2 sequence: T1 sequence
The experiment is described as follows: co-IP; endogenous proteins, HT-29 and Caco-2 cell lysates, IP with anti-FXR.

In experiment [3] the target is T3, Myc-tagged farnesoid X receptor (FXR) (UniProt Q96RI1).
T3 sequence: T1 sequence
The experiment is described as follows: co-IP; HEK293 cells co-transfected with tagged proteins; cell lysates, IP with anti-HA, anti-Myc or anti-Flag antibody; Fig. 5d with or without FXR overexpression.

A further experiment concerns the target HA-tagged TCF4 (UniProt Q9NQB0). Described as above.
The target of a further experiment is Flag-tagged β-catenin (UniProt P35222). Described as above.

In the case of “endogenous retinoid X receptor alpha (RXRα) (from UniProt P19793 1-462)”, the binding result in experiment [1] was “binds”. As to “endogenous β-catenin (from UniProt P35222 1-781)”, the binding entry in experiment [1] and in experiment [2] was “binds” in each case. For “Flag-tagged β-catenin (from UniProt P35222 1-781)”, the binding result in experiment [3] was “binds”.

B1: Myc-tagged farnesoid X receptor (FXR) (protein, UniProt Q96RI1 1-486)
chain: T1 sequence
For the molecule B1, the values for the binding entry with HA-tagged TCF4 and with Flag-tagged β-catenin were “no binding” and “binds”, respectively.
